Measured values taken from article PMC9113893, “Carbon Material Hybrid Construction on an Aptasensor for Monitoring Surgical Tumors”.

Biological target: T1, carcinoembryonic antigen (CEA) (human) (UniProt P06731)
T1 sequence (looked up, limits assumed): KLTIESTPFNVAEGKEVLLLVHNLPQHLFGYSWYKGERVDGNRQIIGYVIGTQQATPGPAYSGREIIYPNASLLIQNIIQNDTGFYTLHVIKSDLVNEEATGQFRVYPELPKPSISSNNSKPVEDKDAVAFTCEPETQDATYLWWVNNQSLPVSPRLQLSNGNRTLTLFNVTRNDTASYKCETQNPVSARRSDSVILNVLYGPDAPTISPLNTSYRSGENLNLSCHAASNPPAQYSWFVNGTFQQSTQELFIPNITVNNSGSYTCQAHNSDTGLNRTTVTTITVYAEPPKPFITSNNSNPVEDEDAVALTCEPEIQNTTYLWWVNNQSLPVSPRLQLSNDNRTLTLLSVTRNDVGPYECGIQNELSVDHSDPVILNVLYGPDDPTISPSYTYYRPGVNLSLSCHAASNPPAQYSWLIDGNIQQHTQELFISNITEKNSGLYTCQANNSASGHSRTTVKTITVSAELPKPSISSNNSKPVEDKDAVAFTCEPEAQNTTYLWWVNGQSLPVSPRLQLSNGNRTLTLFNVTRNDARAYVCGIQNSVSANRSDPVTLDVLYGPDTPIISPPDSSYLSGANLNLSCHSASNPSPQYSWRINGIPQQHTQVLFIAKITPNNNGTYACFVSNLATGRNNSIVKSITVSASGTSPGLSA
Assay: electrochemical aptasensor (interdigitated electrode, sandwich)
Details: 1 uM detection aptamer added to CEA held by capture aptamer N1, no separate read-out for N2; PBS or 1:100 diluted human serum; graphene-modified IDE blocked with 1% BSA; salt and temperature not stated; commercial protein; single-stranded DNA

Does “AGGGGGTGAAGGGATACCC [anti-CEA detection aptamer (detection probe)]” bind?
Result: binds

Construct, isoform or probe ends are uncertain for at least one entry. At least one verdict rests on a figure or table, not on a statement of the authors. Where a protein sequence is shown, tags need not be part of it.
